Common to all, as to experiment: EMSA
Data set [1] concerns the target Sis10b ΔN12 del1-12 (Sulfolobus islandicus REY15A) (UniProt F0NHH1). To be noted: 55°C; EMSA: 20 mM HEPES-NaOH pH 7.0, 1 mM DTT, 100 ug/ml BSA, 6% glycerol, 30 min at 25, 37 or 55°C; gel in 0.5x TBE at the same temperature; recombinant protein; residues 13-97; label: 5' 32P.
The target of data set [2] is Sis10b K16A (Sulfolobus islandicus REY15A) (UniProt F0NHH1). The settings on record: 55°C, EMSA: 20 mM HEPES-NaOH pH 7.0, 1 mM DTT, 100 ug/ml BSA, 6% glycerol, 30 min at 25, 37 or 55°C, gel in 0.5x TBE at the same temperature, recombinant protein.
The target of data set [3] is Sis10b K17R (Sulfolobus islandicus REY15A) (UniProt F0NHH1). To be noted: EMSA: 20 mM HEPES-NaOH pH 7.0, 1 mM DTT, 100 ug/ml BSA, 6% glycerol, 30 min at 25, 37 or 55°C, gel in 0.5x TBE at the same temperature, recombinant protein. (Mobility shift assays separate free from complexed probe on a gel.)
Data set [4] deals with Sis10b K16N/R44I (Sulfolobus islandicus REY15A) (UniProt F0NHH1). The settings on record: EMSA: 20 mM HEPES-NaOH pH 7.0, 1 mM DTT, 100 ug/ml BSA, 6% glycerol, 30 min at 25, 37 or 55°C, gel in 0.5x TBE at the same temperature, recombinant protein.
Data set [5] concerns the target Sis10b R44I/R83T (Sulfolobus islandicus REY15A) (UniProt F0NHH1). The settings on record: EMSA: 20 mM HEPES-NaOH pH 7.0, 1 mM DTT, 100 ug/ml BSA, 6% glycerol, 30 min at 25, 37 or 55°C, gel in 0.5x TBE at the same temperature, recombinant protein.
Data set [6] has as its target Sis10b K16N/R83T (Sulfolobus islandicus REY15A) (UniProt F0NHH1). To be noted: EMSA: 20 mM HEPES-NaOH pH 7.0, 1 mM DTT, 100 ug/ml BSA, 6% glycerol, 30 min at 25, 37 or 55°C, gel in 0.5x TBE at the same temperature, recombinant protein.
Data set [7] has as its target Sis10b M20E/L24E/L27E/F60E (Sulfolobus islandicus REY15A) (UniProt F0NHH1). To be noted: 55°C; EMSA: 20 mM HEPES-NaOH pH 7.0, 1 mM DTT, 100 ug/ml BSA, 6% glycerol, 30 min at 25, 37 or 55°C; gel in 0.5x TBE at the same temperature; recombinant protein; label: 5' 32P.
In data set [8] the target is Sis10b K17A (Sulfolobus islandicus REY15A) (UniProt F0NHH1). The settings on record: 55°C; EMSA: 20 mM HEPES-NaOH pH 7.0, 1 mM DTT, 100 ug/ml BSA, 6% glycerol, 30 min at 25, 37 or 55°C; gel in 0.5x TBE at the same temperature; recombinant protein; label: 5' 32P on top strand.
Data set [9] concerns the target Sis10b K16N/R44I/R83T (Sulfolobus islandicus REY15A) (UniProt F0NHH1). The settings on record: 55°C, hardly able to bind even at 10 uM; EMSA: 20 mM HEPES-NaOH pH 7.0, 1 mM DTT, 100 ug/ml BSA, 6% glycerol, 30 min at 25, 37 or 55°C; gel in 0.5x TBE at the same temperature; recombinant protein; label: 5' 32P on top strand.
[10] abbreviates: 25°C, label: 5' 32P on top strand.
Where [11] appears, read: 55°C, range given for the three double mutants, label: 5' 32P on top strand.

Sequences of proteins named here, by UniProt entry; tags and fusion partners are left off. Residues count along the entry.
UniProt F0NHH1, 13-97, stated change not applied: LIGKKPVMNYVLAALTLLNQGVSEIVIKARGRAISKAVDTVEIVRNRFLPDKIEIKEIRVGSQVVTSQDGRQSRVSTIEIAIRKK
UniProt F0NHH1, whole entry K16A: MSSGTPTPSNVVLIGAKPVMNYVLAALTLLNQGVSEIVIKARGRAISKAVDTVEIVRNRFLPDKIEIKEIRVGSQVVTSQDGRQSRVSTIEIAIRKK
UniProt F0NHH1, whole entry K17R: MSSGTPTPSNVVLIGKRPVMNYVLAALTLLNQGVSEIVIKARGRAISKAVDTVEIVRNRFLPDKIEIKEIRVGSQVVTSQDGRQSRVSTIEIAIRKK
UniProt F0NHH1, whole entry K16N/R44I: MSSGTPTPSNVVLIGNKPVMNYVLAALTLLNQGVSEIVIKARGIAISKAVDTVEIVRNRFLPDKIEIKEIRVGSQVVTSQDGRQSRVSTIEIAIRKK
UniProt F0NHH1, whole entry R44I/R83T: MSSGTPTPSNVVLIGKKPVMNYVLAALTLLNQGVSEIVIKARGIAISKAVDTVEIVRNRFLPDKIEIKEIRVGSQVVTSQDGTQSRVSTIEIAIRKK
UniProt F0NHH1, whole entry K16N/R83T: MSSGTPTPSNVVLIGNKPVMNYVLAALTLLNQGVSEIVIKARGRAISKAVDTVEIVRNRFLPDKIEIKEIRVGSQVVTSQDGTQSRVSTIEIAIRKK
UniProt F0NHH1, whole entry M20E/L24E/L27E/F60E: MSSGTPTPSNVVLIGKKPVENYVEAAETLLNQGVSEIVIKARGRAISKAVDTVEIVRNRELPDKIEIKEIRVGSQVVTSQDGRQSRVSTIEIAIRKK
UniProt F0NHH1, whole entry K17A: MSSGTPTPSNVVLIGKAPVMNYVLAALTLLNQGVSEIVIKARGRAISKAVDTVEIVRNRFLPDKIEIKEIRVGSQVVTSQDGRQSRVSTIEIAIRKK
UniProt F0NHH1, whole entry K16N/R44I/R83T: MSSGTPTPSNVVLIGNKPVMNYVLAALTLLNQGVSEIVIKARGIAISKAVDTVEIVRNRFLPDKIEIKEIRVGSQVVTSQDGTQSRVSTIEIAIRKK

The text below walks through data of publication PMC7498313.

Construct, isoform or probe ends are uncertain for at least one entry. For some assays here: A weaker result is weaker than the reference pair of the same experiment. For some assays here: At least one verdict was read from the data and is not stated in words by the source.

“UGACUUCCGCGCGUGAGCUCGAUUCCACAUACCCUAAAUCGCUC [44-nt ssRNA (t)]”: the binding result in data set [1] was “binds”; in data set [2] (label: 5' 32P), “binds”; in [3] (55°C, label: 5' 32P), “binds”; in data set [4] (55°C, label: 5' 32P), “binds more weakly”; in [5] (55°C, label: 5' 32P), “binds more weakly”; in [6] (55°C, label: 5' 32P), “binds more weakly”. For the same sequence, the binding result in [7] is “binds”.
In the case of “GGUAAGAGCACCCGACUGCUCUUCC / GGAAGAGCAGUCGGGUGCUCUUACC [25-bp dsRNA]”, the binding result was “binds” in [3] (setting [10]), “binds more weakly” in data set [4] (setting [10]), “binds more weakly” in [5] (setting [10]) and “binds more weakly” in data set [6] (setting [10]).
Regarding “UGACUUCCGCGCGUGAGCUCGAUUCCACAUACCCUAAAUCGCUC / GAGCGAUUUAGGGUAUGUGGAAUCGAGCUCACGCGCGGAAGUCA [44-bp dsRNA]”, the Kd (commonly the concentration at which binding is half-saturated) in [8] was 47.3 nM; in [9], more than 10000 nM; in data set [2] (label: 5' 32P on top strand), 59.3 nM. Also, the binding result in data set [4] (setting [11]), in data set [5] (setting [11]) and in [6] (setting [11]) was “binds more weakly” each time.
